This is an account of results in paper PMC5605700.

Sequences of proteins named here, by UniProt entry; tags and fusion partners are left off.
UniProt O94817: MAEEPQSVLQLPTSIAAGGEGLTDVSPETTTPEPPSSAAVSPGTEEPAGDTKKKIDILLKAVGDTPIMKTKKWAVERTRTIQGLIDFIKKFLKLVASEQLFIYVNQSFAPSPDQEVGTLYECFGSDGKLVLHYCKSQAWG
UniProt Q9CQY1: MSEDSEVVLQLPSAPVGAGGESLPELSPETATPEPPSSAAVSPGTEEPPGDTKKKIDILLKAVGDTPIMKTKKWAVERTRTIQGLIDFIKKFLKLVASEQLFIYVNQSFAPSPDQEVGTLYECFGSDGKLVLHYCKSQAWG

The target in test [1] is T1, Tecpr1 (tectonin β-propeller repeat-containing protein 1) (human (endogenous in HEK293)) (UniProt Q7Z6L1).
T1 sequence: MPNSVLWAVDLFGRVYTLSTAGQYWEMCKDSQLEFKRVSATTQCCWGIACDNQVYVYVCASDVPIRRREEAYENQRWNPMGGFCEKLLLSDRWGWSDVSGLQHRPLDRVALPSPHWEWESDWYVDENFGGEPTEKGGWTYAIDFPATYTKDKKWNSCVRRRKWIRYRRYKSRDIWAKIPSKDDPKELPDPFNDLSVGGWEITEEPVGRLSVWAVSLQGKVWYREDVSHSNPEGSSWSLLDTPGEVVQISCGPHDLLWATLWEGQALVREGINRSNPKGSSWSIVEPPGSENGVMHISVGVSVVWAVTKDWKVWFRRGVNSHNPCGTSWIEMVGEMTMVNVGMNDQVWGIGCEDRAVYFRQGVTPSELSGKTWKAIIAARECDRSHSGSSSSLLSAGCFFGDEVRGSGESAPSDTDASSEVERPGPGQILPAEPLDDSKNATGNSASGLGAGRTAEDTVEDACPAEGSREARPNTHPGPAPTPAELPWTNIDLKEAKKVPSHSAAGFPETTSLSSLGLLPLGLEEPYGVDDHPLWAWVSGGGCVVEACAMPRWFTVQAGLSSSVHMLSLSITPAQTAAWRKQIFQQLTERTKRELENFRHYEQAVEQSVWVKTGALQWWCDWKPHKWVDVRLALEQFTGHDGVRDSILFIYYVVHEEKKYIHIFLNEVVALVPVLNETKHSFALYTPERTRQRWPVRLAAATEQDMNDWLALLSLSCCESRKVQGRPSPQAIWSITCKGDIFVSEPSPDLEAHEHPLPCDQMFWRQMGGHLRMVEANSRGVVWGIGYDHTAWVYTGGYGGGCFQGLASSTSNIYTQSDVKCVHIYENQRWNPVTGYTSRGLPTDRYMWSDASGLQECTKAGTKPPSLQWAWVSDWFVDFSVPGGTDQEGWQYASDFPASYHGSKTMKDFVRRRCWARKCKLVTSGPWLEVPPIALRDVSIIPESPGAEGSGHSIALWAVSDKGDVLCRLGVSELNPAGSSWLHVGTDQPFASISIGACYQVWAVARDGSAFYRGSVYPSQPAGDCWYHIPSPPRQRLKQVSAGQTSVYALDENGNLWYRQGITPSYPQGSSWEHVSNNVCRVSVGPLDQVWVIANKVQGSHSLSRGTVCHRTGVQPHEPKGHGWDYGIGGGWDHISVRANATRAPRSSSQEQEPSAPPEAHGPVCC
The test can be described thus: co-IP; immunoprecipitation on HEK293 cells with antibodies against Atg12 or Tecpr1 (rabbit IgG as control), blots probed with Dock180 antibody.

For test [2], the target named is Atg12 (autophagy related 12) (human (endogenous in HEK293)) (UniProt O94817). The test is described as above.
Test [3] addresses Atg12 (autophagy related 12) (mouse (endogenous in TM4)) (UniProt Q9CQY1). The test is described as follows: co-IP; immunoprecipitation on TM4 Sertoli cells with antibodies against Dock180, LC3B, Atg12 or Tecpr1 (rabbit IgG and beads alone as controls), blots probed with LC3B or Dock180 antibodies.
Test [4] concerns the target T2, Tecpr1 (tectonin β-propeller repeat-containing protein 1) (mouse (endogenous in TM4)) (UniProt Q80VP0).
T2 sequence: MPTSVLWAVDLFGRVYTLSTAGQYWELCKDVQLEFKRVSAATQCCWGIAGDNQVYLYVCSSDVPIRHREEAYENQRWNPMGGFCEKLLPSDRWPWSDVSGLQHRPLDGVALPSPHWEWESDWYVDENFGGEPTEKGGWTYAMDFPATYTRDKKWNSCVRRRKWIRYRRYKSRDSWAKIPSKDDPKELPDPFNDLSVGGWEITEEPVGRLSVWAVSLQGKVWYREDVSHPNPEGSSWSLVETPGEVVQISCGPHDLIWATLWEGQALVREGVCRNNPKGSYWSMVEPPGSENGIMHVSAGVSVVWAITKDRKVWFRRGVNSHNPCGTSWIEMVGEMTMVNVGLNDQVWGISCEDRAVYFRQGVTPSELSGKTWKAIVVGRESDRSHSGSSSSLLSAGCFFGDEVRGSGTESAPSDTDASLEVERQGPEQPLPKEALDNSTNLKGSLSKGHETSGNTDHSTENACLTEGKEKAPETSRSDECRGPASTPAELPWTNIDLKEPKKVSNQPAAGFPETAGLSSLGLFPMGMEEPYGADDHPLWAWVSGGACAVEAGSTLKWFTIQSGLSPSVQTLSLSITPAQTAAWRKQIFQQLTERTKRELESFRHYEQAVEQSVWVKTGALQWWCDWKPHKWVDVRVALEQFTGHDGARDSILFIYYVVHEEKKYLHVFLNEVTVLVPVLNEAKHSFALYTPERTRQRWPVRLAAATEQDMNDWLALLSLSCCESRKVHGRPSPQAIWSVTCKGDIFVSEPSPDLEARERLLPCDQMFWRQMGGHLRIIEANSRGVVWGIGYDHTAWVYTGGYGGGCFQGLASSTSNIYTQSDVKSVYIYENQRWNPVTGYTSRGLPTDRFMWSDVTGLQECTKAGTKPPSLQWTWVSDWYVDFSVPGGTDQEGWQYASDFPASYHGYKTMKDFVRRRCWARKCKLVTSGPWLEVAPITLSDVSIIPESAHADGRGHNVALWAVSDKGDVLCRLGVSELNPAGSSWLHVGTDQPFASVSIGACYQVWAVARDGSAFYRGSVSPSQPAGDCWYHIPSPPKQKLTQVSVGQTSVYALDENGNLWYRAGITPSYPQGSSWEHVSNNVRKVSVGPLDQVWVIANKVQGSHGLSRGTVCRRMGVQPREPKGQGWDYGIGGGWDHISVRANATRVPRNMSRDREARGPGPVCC
The description is as above.

Results are given in words; binding and its absence hold for the method and conditions named. Binding seen in cells or lysates may run through a third protein. Some entries that bind do so weakly or less than the wild type.

In the case of “Dock180 (dedicator of cytokinesis 1) (from UniProt Q14185 1-1865)”, the binding entry in test [1] and in test [2] was “binds” throughout.
As to “Dock180 (dedicator of cytokinesis 1) (from UniProt Q8BUR4 1-1865)”, the binding entry in test [3] and in test [4] was “binds” throughout.
